In test [1] the target is gelsolin (GSN), endogenous in mouse liver (mouse (endogenous in mouse liver)) (UniProt P13020). Put plainly: co-IP; endogenous proteins from liver tissue of mice on STD or MCD diet; IP with anti-GSN or anti-MDM2 antibody and protein G agarose beads overnight at 4 °C; IP buffer 20 mM Tris-HCl, 150 mM NaCl, 1 mM EDTA, 1% NP-40; IgG control.
In test [2] the target is FLAG-GSN (UniProt P13020). In words: co-IP; 293T cells co-transfected with plasmids for GSN and MDM2, 24-48 h; IP buffer 20 mM Tris-HCl, 150 mM NaCl, 1 mM EDTA, 1% NP-40; protein G agarose beads and antibody overnight at 4 °C.
Test [3] deals with MDM2, endogenous in mouse liver (mouse (endogenous in mouse liver)) (UniProt P23804). In words: co-IP; endogenous proteins from liver tissue of mice on STD or MCD diet; IP with anti-GSN or anti-MDM2 antibody and protein G agarose beads overnight at 4 °C; IP buffer 20 mM Tris-HCl, 150 mM NaCl, 1 mM EDTA, 1% NP-40; IgG control.

Sequences of proteins named here, by UniProt entry; tags and fusion partners are left off. Residues count along the entry.
UniProt P13020, residues 26-780: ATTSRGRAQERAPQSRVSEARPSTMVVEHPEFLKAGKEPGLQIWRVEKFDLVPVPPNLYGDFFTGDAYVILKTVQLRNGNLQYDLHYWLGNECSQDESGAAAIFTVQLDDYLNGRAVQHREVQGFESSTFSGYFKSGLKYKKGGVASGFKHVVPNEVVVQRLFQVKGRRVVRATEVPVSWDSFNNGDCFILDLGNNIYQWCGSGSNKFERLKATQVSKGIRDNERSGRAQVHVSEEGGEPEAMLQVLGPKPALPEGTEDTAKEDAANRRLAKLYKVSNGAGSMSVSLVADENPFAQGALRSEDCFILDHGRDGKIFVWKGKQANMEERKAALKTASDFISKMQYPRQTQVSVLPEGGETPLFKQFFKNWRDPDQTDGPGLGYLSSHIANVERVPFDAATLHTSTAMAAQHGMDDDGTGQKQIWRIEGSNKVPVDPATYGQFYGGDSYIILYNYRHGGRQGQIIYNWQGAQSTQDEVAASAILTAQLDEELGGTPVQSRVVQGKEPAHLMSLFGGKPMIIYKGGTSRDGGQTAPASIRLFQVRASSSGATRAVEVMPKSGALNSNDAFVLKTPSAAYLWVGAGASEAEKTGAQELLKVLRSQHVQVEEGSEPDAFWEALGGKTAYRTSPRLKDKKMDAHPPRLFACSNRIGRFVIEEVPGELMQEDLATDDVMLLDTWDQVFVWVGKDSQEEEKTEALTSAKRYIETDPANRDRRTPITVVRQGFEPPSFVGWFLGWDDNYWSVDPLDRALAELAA
UniProt P23804: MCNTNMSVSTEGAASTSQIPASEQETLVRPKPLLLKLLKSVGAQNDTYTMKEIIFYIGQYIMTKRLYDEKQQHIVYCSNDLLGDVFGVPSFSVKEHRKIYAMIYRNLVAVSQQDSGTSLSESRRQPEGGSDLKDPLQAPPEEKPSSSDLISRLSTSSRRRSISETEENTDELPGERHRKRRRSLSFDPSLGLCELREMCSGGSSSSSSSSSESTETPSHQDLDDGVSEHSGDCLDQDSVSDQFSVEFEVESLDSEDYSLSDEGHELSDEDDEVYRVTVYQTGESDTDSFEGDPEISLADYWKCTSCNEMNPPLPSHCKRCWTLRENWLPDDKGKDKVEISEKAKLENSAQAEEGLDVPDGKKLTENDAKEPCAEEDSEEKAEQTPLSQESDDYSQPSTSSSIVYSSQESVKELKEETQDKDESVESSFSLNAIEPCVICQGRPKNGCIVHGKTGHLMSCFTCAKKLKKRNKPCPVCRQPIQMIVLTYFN

These are yes or no findings as the source states them, for the method shown. In cells and extracts the contact can be indirect. Some binding calls cover weakened binding; strength is not graded here.

For “MDM2, endogenous in mouse liver (from UniProt P23804 1-489)”, the binding result in test [1] is “binds”.

Take MYC-MDM2 (from UniProt P23804 1-489): in test [2], the binding result is recorded as “binds”.

On to “gelsolin (GSN), endogenous in mouse liver (from UniProt P13020 26-780)”, for which the binding result in test [3] is given as “binds”.

Values taken from PMC12199436.
